Publication PMC7578833
These are yes or no findings as the source states them, for the method shown. In cells and extracts the contact can be indirect. A yes stands for co-enrichment or nearness to the bait. Other partners may have been found.

B1: MIC19 (ChChD3), endogenous in HT-4 cells (protein, UniProt Q9CRB9 1-227)
chain: MGGTASTRRVTFEADENENITVVKGIRLSENVIDRMKESSPSGSKSQRYSSVYGASVSDEDLKRRVAEELALEQAKKESEHQRRLKQARDLERERAAANEQLTRAVLRERISSEEERMKAKHLARQLEEKDRVMRKQDAFYKEQLARLEERSSEFYKVTTEEYQKAAEEVEAKFKRYEYHPVCADLQTKILQCYRQNTQQTLSCSALASQYMHCVNHAKQSMLEKGG
B2: SAMM50, endogenous in HT-4 cells (protein, UniProt Q8BGH2 1-469)
chain: MGTVHARSLEPLPSSGTDFGALGEEAEFVEVEPEAKQEILENKDVVVQHVHFDGLGRTKDDIIICEIGEVFKAKNLIEVMRRSHEAREKLLRLGIFRQVDVLIDTCHGEDALPNGLDVTFEVTELRRLTGSYNTMVGNNEGSMVLGLKLPNLLGRAEKVTFQFSYGTKETSYGLSFFKPQPGNFERNFSVNLYKVTGQFPWSSLRETDRGVSAEYSFPLWKTSHTVKWEGVWRELGCLSRTASFAVRKESGHSLKSSLSHAMVIDSRNSSILPRRGALFKVNQELAGYTGGDVSFIKEDFELQLNKPLALDSVFSTSLWGGMLVPIGDKPSSIADRFYLGGPTSVRGFSMHSIGPQSEGDYLGGEAYWAGGLHLYTPLPFRPGQGGFGELFRTHFFLNAGNLCNLNYGEGPKAHIRKLAECIRWSYGAGVVLRLGNIARLELNYCIPMGVQGGDRICDGVQFGAGIRFL
B3: Metaxin-2 (MTX-2), endogenous in HT-4 cells (protein, UniProt O88441 1-263)
chain: MSLVAEAFVSQIAATEPWPENATLYQQLRGEQILLSDNAASLAVQAFLQMCNLPVKVVCRANAEYMSPSGKVPFIHVGNQVVSELGPIVQFVKAKGHSLSDGLDEVQKAEMKAYMELVNNMLLTAELYLQWCDEATVGEITIARYGSPYPWPLNHILAYQKQWEVKRKMKAIGWGNKTLDQVLEDVDQCCQALSQRLGTQPYFFNKQPTELDALVFGHLYTILTTQLTSDELSEKVKNYSNLLAFCRRIEQHYFEDWGKGRLS

molecular target: Strep-tagged PDE2A2; test: affinity purification with mass spectrometry; Strep-tagged PDE2A2 (control: Strep-tagged EF-Ts) overexpressed in HT-4 mouse neuroblastoma cells; immunoprecipitated from lysate with anti-StrepMab-Immo antibody coupled to Dynabeads Protein G; label-free quantification (MaxQuant), two biological replicates, t-test at 10% FDR

binding, binds:
B1, B2, B3
